At least one structure is not confirmed: it was looked up by name or label, or the drawing left a doubt.
Target: T1, GGTase I (Homo sapiens, UniProt P53609)
T1 construct: FTase and GGTase I activities from 60,000×g supernatants of human Burkitt lymphoma (Daudi) cells; endogenous in cells; host or cells: human Burkitt lymphoma (Daudi) cells, 60,000xg supernatant (partially purified)
Experiment: GGTase I activity assay: transfer of [3H]geranylgeranyl to recombinant H-Ras-CVLL, Daudi 60,000xg supernatant
Type: biochemical
Conditions: Table 4
Procedure: FTase and GGTase I activities from 60,000×g supernatants of human Burkitt lymphoma (Daudi) cells (ATCC, Rockville, Md., USA) were assayed as described previously for FTase (41). Briefly, 100 μg of the supernatant was incubated in 50 mM Tris, pH 7.5, 50 μM ZnCl2, 20 mM KCl and 1 mM dithiothreitol (DTT). The reaction was incubated at […] for 30 min with recombinant Ha-Ras-CVLS (11 μM) and [^3 H]FPP (625 nM; 16.3 Ci/mmol) for FTase, and recombinant Ha-Ras-CVLL (5 μM) and [^3 H]geranylgeranylpyrophosphate (525 nM; 19.0 Ci/mmol) for GGTase I. The peptidomimetics were mixed with FTase and GGTase before adding to the reaction mixture.
Human Burkitt lymphoma (Daudi) cells (ATCC, Rockville, Md.) were grown in suspension in RPMI 1640 medium containing 10% fetal bovine serum (FBS) and 1% Pen-Strep in a humidified 10% CO2 incubator at 37° C. The cells were harvested and sonicated in 50 mM Tris, pH 7.5, 1 mM EDTA, 1 mM EGTA, 25 μg/ml leupeptin, 1 mM phenylmethylsulfonyl fluoride. Homogenates were then spun at 12,000×g and the resulting supernatant further spun at 60,000×g. The supernatant was assayed for both FTase and GGTase I. Briefly, 100 μg of the supernatants was incubated in 50 mM Tris, pH 7.5, 50 μM ZnCl2, 20 mM KCl, 3 mM MgCl2 and 1 mM DTT. For FTase assays, the reaction was incubated at 37° C. for 30 minutes with recombinant H-Ras-CVLS (11 μM) and [^3 H] FPP (625 nM; 16.3 Ci/mmol). […]

With `NCC(N)CNc1ccc(-c2cccc(C(=O)O)c2)cc1` (stereo not drawn) [FTI-282, (DL) 4-(2,3-diaminopropyl)-amino-3' carboxybiphenyl] the “GGTase-I IC50” value was > 1000,000 nM.
